From patent US20040106584A1, “Prophylactic docosahexaenoic acid therapy for patients with subclinical inflammation” (priority 2002, published 2004)
For at least one compound, name, drawing or mass did not settle the structure.

System: C-reactive protein and other inflammatory markers
Test: Planned placebo-controlled DHA trial in individuals who have suffered a heart attack (Example 2)
Type: in vivo, human
Conditions: DHA 1 g/day, six months to a year, compared to baseline and placebo

CC/C=C\C/C=C\C/C=C\C/C=C\C/C=C\C/C=C\CCC(=O)O [DHA, docosahexaenoic acid]
levels of other inflammatory markers: moderated levels
mean C-reactive protein concentration: reduction
